Source: PubChem BioAssay AID2685 (National Center for Advancing Translational Sciences (NCATS), 2010)
About 2,100 (0.66%) of roughly 320,000 compounds were called active. The shares of active, inactive and inconclusive entries below differ from those in the screen. Calls follow the shape of the dose curve; as a rule, active = well fitted inhibition curve with a large enough effect in the signal ratio, with a control signal flat (not every such curve was filed as active); inconclusive = small, poorly fitted or top-dose-only effect, or effect the other way, or a change in a side signal; inactive = flat fitted curve, though single readings scatter; the % refers to the signal ratio. Potencies beside an inconclusive call are fits to weak or partial responses and may not hold up.

Assay: qHTS Assay for Lipid Storage Modulators in Drosophila S3 Cells
Conditions: BODIPY lipid droplet fluorescence, 18-24 h, cells fed with added oleic acid; lipid storage change, negative = inhibition: at 46.1 µM (top of the series) unless noted
Procedure, shortened: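 Laser-scanning cytometry quantifies lipid droplet accumulation (500–530 nm total intensity; droplet/cell object ratio) in oleic acid-fed (400 uM added) Drosophila S3 cells treated with a concentration series. 20 uM Triacsin C defined 100% inhibition.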
% is scaled to controls: 0 for no effect and ±100 for the full control effect; potency is read from the fitted curve at half-maximal effect.

Lipid storage change, negative = inhibition, inconclusive:
CCCCC1CCC(C(=O)N2CCOCC2)CC1 (stereo not given) 8.44%
CCOc1ccc2oc(C(=O)Nc3cc(C)ccn3)c(C)c2c1 -38.4% [at 0.0737 µM]
CN(CCC#N)S(=O)(=O)c1cc2c3c(c1)CCN3C(=O)CC2 -45.5%
CC(NC(=S)Nc1cccc(C(F)(F)F)c1)C(C)(C)C (stereo not given) -90.2%
CC1CC(C)(C)NC(=S)N1CC(=O)NCc1ccc(F)cc1 (stereo not given) -2.78%
Cc1ccc2nc(NCc3ccccc3)c(C=NCc3cccnc3)c(=O)n2c1 5.69%
COc1cccc(CN(C)C(=O)c2csc3c2CCCC3)c1OC 24.7%
COc1ccc(CN(C)CC(O)COC(c2ccccc2)c2ccccc2)c(OC)c1OC (stereo not given) 123%
COc1ccc(C2C(C#N)=C(N)Oc3n[nH]c(C)c32)cc1Cn1nc(C)c([N+](=O)[O-])c1C (stereo not given) 56.1%
O=C(NC1=NCCCCC1)c1cccc2ccccc12 40.4%
COCCn1c(SC(C)C(=O)Nc2ccc(Cl)cn2)nnc1-c1ccncc1 (stereo not given) 41.5%

Five compounds out of the list, arranged by number of heavy atoms, descending.
Lipid storage change, negative = inhibition, inconclusive:
COc1ccc(CN(C)CC(O)COC(c2ccccc2)c2ccccc2)c(OC)c1OC (stereo not given) 123%
COc1ccc(C2C(C#N)=C(N)Oc3n[nH]c(C)c32)cc1Cn1nc(C)c([N+](=O)[O-])c1C (stereo not given) 56.1%
CCOc1ccc2oc(C(=O)Nc3cc(C)ccn3)c(C)c2c1 -38.4% [at 0.0737 µM]
O=C(NC1=NCCCCC1)c1cccc2ccccc12 40.4%
CCCCC1CCC(C(=O)N2CCOCC2)CC1 (stereo not given) 8.44%

Following part.

Potency, active:
COc1ccc(S(=O)(=O)NCC2CCCO2)cc1NC(=O)c1ccccc1F (stereo not given) 25.9 µM

Potency, inconclusive:
Cc1cc(NC(=O)NC2CCCN2S(=O)(=O)c2ccc(Cl)cc2)no1 (stereo not given) 29.1 µM [activator, single point]
Cc1cc(N2C(=O)C(O)=C(C(=O)c3cc4ccccc4o3)C2c2ccc(Br)cc2)no1 (stereo not given) 29.1 µM [activator, partial curve]
Cc1cc(C(F)(F)F)nn1CCCNC(=O)c1cnccn1 4.61 µM [activator, partial curve]
O=C(NN1C(=O)/C(=C/c2cccc(O)c2)SC1=S)c1ccccc1O 13 µM [activator, partial curve]
COc1cc2c3nnc(-c4ccc(F)cc4)c-3cn(Cc3ccccc3)c2cc1OC 32.6 µM [falling, single point]
COc1ccccc1C(=O)NCCNc1nc2cc(C)cc(C)c2cc1C#N 29.1 µM [falling, single point]
Cc1cccc(NC(=O)CSc2nnc(CNC(=O)c3ccc(S(=O)(=O)N(C)C)cc3)n2-c2ccccc2)c1 2.31 µM [activator, full curve, poor fit]
O=c1cc(CN2CCOCC2)c2c(ccc3ccccc32)o1 1.64 µM [rising, full curve, poor fit]
